Test results: patent publication US20210324075A1
Results are given in words; binding and its absence hold for the method and conditions named. Some entries that bind do so weakly or less than the wild type.

By UniProt entry, the sequences of proteins in these tests, tags left out. Where a name states a change or a piece, a line headed by the entry shows the natural chain unless it says otherwise. Residues count along the entry.
UniProt Q61735, residues 19-303: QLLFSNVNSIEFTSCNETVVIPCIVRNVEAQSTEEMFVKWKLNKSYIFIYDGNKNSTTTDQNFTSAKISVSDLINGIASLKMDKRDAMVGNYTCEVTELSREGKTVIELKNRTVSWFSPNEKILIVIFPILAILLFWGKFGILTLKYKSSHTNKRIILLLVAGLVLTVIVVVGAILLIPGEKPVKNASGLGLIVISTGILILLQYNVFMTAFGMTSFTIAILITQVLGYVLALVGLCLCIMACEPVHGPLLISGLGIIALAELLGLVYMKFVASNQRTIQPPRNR
UniProt Q08722: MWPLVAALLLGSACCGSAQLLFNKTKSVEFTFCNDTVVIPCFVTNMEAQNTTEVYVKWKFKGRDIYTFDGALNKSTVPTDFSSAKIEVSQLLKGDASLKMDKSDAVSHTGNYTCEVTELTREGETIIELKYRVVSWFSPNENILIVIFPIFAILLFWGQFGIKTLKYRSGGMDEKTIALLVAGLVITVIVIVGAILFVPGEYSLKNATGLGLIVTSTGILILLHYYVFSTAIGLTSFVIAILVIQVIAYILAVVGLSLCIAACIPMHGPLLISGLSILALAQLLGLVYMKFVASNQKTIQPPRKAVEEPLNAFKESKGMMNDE
UniProt Q9GKE8, residues 19-303: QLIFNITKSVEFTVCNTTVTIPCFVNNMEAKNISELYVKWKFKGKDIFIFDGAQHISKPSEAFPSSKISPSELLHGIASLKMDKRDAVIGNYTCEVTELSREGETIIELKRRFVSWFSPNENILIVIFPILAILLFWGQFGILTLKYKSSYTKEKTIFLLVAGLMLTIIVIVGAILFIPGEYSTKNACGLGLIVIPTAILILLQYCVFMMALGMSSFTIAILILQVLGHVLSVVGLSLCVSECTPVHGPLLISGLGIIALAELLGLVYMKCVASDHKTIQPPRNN

T1: rat CD47 (rat) (UniProt P97829)
T1 sequence (looked up): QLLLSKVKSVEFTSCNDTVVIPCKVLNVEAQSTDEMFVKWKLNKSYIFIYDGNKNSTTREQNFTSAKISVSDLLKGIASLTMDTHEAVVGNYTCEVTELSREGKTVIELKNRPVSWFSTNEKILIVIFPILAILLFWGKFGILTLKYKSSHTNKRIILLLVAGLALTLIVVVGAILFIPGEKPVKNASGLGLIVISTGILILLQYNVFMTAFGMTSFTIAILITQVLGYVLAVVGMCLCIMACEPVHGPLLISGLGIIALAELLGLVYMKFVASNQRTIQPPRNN


How the values were obtained:
[1] = target: T1, rat CD47 (rat); assay: flow cytometry on rat RBCs
[2] = target: mouse CD47 (mouse) (UniProt Q61735); assay: flow cytometry on mouse RBCs
[3] = target: human CD47 (human) (UniProt Q08722); assay: flow cytometry on human RBCs
[4] = target: pig CD47 (pig) (UniProt Q9GKE8); assay: flow cytometry on pig RBCs

Row | Binder | binding [1] | binding [2] | binding [3] | binding [4]
1 | Vx11 (antibody, V domains shown) VH: EVQLQQSGAQLVKPGTSMKLSCKASGYTFTNYFLYWVKQRPGQGLEWIGDINPNAGSTNLNERFKSKATLTVDKSSSTAYLQLSGLTSEDSAVYYCTRGGYTMDYWGQGTSVTVSS VL: DVVMTQTPLSLPVSLGDQASISCRSSQSLENSNGDTYLNWYLQKPGQSPQLLIYRVSNRFSGVLDRFSGSGSGTDFTLQISRVEAEDLGVYFCLQVSHVPWTFGGGTNLEIK | binds | binds | binds | –
2 | Vx13 (antibody, V domains shown) VH: EVQLQQSGPEVVKPGASVRISCKASDYTFTNYYIHWVRQRPGQGLEWIGWIYPGNNNNKYNEKFKGKATLTEDTSSSTAYMQLSSLTSEDSAVYFCARGGYTMDYWGQG VL: DVLMTQTPLSLPVSLGDQASISCRSSQSLVHSNGNTYLHWYLQKPGQSPNLLIYKVSNRFSGVPDRFSGSGSGTDFTLKINRVETEDLGIYFCSQSTHVLTFGAG | – | – | binds | binds
